These are yes or no findings as the source states them, for the method shown. Binding seen in cells or lysates may run through a third protein. Some binding calls cover weakened binding; strength is not graded here. For part of these data: Where a sequence is shown, tags or fusion partners need not be part of it. One block for each substance: values may come before it.
Tests used:
FLAG-tagged USP9X^WT = FLAG-tagged USP9X^WT (UniProt Q93008); test: co-IP; anti-FLAG immunoprecipitation of the FLAG-tagged protein from HEK 293T lysates (Tris/HCl 50 mM, NaCl 150 mM, EDTA 1 mM, NP40 0.1%, MgCl2 5 mM, glycerol 5%; beads 1.5 h at 4 °C), western blot; cells untreated/asynchronous or arrested in mitosis with nocodazole
[1] = target: T1, FLAG-tagged CDC14B (human) (UniProt O60729); test: as above
T1 sequence: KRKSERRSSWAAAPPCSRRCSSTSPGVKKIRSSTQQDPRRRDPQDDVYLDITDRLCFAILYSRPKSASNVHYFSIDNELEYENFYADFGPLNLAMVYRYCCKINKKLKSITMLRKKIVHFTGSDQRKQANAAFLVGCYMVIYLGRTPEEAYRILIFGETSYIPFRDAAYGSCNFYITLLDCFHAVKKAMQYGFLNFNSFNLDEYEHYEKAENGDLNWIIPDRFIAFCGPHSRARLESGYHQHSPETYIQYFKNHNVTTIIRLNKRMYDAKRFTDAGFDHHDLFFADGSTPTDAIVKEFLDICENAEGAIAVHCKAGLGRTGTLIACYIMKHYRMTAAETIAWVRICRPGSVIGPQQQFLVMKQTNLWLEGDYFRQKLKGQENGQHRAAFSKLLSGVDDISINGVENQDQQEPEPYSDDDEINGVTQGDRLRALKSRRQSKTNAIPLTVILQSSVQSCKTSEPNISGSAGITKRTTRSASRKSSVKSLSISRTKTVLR

Chains of the proteins cited; added tags and fusions are not shown. Lines headed by an entry give the natural chain unless they say otherwise; changes in a name come on top. A line that says so, or that is headed by a name, gives the form on record, which may keep a tag or linker.
USP9X (co-immunoprecipitation of Supplementary Fig. 3b) (Q93008-3, form named): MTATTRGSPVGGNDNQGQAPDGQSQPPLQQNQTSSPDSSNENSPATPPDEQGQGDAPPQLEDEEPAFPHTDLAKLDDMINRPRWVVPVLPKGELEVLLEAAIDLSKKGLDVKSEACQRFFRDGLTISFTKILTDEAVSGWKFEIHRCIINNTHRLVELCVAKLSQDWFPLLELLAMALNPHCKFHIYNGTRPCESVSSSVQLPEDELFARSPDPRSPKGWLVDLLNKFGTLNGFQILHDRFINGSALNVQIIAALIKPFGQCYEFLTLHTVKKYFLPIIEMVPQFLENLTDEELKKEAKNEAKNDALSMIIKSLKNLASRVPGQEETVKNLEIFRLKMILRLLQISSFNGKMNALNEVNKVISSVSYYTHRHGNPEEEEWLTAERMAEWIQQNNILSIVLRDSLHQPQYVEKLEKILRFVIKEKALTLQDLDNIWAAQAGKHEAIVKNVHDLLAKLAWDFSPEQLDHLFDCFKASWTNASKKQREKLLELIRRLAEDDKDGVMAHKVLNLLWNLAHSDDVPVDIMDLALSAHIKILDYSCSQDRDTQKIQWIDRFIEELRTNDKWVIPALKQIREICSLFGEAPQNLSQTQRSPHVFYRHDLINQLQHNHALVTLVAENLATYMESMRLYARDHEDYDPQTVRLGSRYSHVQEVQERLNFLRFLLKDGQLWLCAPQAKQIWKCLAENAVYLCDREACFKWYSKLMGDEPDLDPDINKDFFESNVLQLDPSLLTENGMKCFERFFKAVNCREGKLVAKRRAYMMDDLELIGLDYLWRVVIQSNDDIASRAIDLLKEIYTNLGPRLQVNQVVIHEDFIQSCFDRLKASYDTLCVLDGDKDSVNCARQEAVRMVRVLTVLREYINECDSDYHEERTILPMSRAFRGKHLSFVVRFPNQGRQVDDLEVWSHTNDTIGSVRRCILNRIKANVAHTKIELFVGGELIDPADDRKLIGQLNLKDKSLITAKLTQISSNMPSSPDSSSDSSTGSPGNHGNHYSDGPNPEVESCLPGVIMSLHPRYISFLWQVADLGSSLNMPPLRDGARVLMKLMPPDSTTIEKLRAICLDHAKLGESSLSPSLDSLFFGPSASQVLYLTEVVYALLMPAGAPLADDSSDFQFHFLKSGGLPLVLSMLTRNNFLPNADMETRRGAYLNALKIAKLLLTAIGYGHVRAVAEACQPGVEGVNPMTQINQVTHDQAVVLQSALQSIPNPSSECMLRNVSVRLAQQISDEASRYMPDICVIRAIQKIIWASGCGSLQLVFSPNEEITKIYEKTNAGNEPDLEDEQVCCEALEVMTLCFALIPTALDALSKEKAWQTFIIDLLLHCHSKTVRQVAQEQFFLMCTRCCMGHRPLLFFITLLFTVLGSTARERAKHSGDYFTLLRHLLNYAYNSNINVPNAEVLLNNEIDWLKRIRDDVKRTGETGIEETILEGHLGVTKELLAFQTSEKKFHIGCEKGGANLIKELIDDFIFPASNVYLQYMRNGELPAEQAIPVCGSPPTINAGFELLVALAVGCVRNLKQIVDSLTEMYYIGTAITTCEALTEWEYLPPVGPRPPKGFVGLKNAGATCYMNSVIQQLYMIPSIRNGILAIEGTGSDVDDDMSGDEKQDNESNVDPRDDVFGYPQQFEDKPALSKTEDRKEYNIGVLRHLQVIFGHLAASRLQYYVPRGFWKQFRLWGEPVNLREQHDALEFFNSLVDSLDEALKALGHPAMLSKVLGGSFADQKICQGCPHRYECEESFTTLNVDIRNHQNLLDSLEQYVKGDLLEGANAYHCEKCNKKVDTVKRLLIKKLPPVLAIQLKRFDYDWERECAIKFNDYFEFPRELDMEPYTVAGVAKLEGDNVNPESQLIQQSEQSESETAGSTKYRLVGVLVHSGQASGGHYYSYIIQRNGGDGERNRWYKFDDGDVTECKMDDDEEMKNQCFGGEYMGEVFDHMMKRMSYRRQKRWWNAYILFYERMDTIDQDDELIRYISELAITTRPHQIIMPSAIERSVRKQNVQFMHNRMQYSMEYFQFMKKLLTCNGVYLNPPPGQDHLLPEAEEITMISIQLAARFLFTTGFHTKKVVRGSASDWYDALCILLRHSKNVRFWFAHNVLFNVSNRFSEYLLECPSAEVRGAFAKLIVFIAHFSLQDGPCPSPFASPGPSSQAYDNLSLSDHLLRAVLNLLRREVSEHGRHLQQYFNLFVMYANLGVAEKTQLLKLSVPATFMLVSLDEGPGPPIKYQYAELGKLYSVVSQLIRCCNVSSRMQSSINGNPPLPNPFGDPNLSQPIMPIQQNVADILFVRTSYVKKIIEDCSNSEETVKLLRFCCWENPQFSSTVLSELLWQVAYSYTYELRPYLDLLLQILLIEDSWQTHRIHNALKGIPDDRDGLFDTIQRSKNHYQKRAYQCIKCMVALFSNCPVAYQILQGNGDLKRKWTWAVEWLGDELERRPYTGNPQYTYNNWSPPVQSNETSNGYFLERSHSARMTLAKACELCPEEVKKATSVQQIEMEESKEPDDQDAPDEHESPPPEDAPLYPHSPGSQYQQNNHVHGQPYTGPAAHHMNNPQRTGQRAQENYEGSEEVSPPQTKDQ

[2] = target: WT1 (co-immunoprecipitation of Supplementary Fig. 3b) (UniProt P19544); test: co-IP; co-immunoprecipitation of DUBs and WT1 (Supplementary Fig. 3b); format not shown

binding (FLAG-tagged USP9X^WT): binds
Substance: WT1 co-immunoprecipitated with FLAG-USP9X from HEK 293T cells (from UniProt P19544 1-449)

binding [1]: binds
Substance: endogenous USP9X (from UniProt Q93008-3 1-2570) (enzyme)

binding [2]: binds
Substance: USP9X (co-immunoprecipitation of Supplementary Fig. 3b) (from UniProt Q93008-3 1-2570) (enzyme)

From publication PMC7063047
